Patent US20100129346A1 (G2 INFLAMMATION, published 2010)
No constants are given. Whether binding was seen depends on the method and setting.

Molecular target: 14. … (scrambled)
Assay: peptide ELISA, biotinylated peptide on streptavidin-coated plates [b]

Binder | binding
MAb 8G7 (antibody, V domains shown, Mouse monoclonal antibody from a hybridoma (ECACC 06081803); also called 8G7-M6) VH: DIQLQESGPGLVKPSQSLSLTCSVTGYSITSGHYWNWIRQLPGNKMEWMGHISNDGSNRYNPSLKNRISITRDTSKNQFFLKLNSVTTEDTATYYCALFYFAYASFAYWGQGTLVTVSA VL: DVVMTQTPLSLPVSLGDQASISCRSSQSLLHSNGNTYLHWYLQKPGQSPKLLIYKVSTRFSGVPDRFSGSGSGADFTLQISRVEAEDLGVYLCSQSTHVPPTFGAGTKLVLT | no binding (tested: 2.5 µg/ml (not on the sheet))
MAb 7H3 (antibody, V domains shown, Mouse monoclonal antibody from a hybridoma (ECACC 06081802); also called 7H3-N9) VH: EVKLEESGGGLVQPGGSMKLSCVASGFTFSDAWMDWVRQSPEKGLEWVAGIRNRANNHATYYVASVKGRFTVSRDDSKSSVYLQMNSLRAEDAGIYYCTRGDGYFFDYWGQGTTLTVSS VL: DVVLTQTPLSLSVSLGDQASISCRSGQSLVHSNGNTYLHWYLQKPGQSSKLLIYKVSNRLSGVPDRFSGSGSGTDFTLKISRVEAEDLGVYFCSQTTHVPPTFGGGTKLEIK | no binding (tested: 2.5 µg/ml (not on the sheet))
